The list shows a part of the results.
Columns and labels:
Assay in all cases: log2 fold change, soluble protein after heating vs DMSO (PISA); higher = thermal stabilisation; K562 cells, 10 uM, 30 min; active = over 0.2 and 3.5 SD of the protein, either way, in both replicates (recomputed)
[1] = compound: CC1=C(C=C(C=C1)NC(=O)C2=CC(=CC=C2)C(C)(C)C#N)NC3=CC4=C(C=C3)N=CN(C4=O)C
In short: (§1)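 K562 cells at 2×10^6 cells/mL were treated for 30 min with 10 μM compound, and aliquots were heated for 3 min over 48°C-58°C before pooling. Extraction used PBS with 0.5% NP-40 at 4°C, and soluble protein was the supernatant after 21,000xg for 90 min, measured by TMTpro 16plex LC-MS/MS with channel sums equalised. Thermal stability values, relative to control samples and from duplicates, are log2 fold changes.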

The chains behind the UniProt entries cited, without tags or fusion partners. Where a name states a change or a piece, a line headed by the entry shows the natural chain unless it says otherwise.
UniProt Q5T3J3: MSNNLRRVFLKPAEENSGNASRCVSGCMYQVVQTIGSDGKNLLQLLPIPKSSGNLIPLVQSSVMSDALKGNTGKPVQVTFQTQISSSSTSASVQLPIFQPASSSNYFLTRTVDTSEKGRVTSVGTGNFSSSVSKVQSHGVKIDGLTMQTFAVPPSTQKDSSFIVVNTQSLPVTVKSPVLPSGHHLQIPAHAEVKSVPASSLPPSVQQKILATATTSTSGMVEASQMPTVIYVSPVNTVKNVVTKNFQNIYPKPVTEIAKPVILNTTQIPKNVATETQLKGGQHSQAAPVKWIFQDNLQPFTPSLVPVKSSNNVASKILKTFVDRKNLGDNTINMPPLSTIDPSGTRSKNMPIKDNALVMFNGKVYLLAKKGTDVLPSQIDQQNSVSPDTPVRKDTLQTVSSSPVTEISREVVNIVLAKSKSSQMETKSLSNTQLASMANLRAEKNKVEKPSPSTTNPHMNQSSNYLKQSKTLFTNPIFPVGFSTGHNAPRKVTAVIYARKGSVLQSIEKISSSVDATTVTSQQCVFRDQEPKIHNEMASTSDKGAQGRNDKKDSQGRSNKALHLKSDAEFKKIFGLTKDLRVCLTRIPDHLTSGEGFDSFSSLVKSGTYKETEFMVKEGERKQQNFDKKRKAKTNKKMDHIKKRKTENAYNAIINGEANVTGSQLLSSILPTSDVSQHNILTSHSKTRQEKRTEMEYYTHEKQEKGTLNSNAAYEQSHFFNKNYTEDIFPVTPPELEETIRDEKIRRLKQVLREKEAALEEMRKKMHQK
UniProt P25791: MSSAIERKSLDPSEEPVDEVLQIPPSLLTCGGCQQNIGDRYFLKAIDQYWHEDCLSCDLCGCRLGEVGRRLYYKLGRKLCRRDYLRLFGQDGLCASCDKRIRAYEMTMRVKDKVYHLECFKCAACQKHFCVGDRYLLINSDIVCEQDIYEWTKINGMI
UniProt Q12907: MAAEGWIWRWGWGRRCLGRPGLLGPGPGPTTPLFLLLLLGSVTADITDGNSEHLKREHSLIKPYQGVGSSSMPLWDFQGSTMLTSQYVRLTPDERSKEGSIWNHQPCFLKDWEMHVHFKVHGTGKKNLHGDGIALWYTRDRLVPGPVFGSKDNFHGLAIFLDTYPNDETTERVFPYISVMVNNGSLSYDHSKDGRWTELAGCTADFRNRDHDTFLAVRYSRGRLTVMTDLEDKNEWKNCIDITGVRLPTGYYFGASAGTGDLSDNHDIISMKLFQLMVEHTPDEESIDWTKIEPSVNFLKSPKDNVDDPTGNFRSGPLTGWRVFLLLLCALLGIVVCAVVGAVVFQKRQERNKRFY
UniProt Q96EM0: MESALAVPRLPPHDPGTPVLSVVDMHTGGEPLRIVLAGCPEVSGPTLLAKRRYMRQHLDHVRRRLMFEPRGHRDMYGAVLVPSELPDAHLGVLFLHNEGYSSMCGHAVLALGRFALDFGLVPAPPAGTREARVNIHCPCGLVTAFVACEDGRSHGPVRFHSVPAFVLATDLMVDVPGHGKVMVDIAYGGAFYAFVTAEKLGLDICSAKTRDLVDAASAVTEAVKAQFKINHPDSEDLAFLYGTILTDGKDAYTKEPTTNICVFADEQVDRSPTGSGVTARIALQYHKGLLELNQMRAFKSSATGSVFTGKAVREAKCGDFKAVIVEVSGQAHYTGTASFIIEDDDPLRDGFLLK
UniProt Q9H0V9: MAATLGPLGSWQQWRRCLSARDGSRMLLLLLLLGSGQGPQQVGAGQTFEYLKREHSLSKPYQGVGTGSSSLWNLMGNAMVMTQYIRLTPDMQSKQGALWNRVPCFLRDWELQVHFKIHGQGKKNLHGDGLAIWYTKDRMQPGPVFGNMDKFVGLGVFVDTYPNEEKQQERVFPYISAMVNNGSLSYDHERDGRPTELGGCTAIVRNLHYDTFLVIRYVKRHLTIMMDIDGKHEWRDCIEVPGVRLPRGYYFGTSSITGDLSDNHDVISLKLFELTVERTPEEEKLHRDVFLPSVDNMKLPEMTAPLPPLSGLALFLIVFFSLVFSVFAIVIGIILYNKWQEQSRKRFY
UniProt P49257: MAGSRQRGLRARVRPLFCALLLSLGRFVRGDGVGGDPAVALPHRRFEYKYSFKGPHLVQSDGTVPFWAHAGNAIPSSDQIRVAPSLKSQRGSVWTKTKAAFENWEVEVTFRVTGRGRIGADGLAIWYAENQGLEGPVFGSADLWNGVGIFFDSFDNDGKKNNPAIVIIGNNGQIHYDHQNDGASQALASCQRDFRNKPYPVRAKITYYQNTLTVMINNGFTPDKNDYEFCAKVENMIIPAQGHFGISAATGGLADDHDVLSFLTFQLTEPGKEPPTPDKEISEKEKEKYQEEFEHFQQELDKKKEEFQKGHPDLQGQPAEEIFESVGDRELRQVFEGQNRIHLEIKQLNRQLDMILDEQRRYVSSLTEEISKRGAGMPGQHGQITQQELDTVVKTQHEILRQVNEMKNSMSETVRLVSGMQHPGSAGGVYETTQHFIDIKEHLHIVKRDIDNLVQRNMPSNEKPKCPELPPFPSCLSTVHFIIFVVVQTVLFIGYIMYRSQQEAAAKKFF
UniProt Q14657: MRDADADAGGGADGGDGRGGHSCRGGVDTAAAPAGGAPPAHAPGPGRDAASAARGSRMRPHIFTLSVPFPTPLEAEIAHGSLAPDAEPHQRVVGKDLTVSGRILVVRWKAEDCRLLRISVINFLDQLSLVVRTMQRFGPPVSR
UniProt Q14847: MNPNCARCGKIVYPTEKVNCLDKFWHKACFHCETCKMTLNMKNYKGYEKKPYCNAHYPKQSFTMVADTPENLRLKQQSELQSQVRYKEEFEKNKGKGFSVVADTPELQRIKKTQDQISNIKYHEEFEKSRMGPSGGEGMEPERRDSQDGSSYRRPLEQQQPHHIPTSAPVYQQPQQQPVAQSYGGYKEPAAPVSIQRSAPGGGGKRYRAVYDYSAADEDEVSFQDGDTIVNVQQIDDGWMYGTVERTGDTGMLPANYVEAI
UniProt Q6YP21: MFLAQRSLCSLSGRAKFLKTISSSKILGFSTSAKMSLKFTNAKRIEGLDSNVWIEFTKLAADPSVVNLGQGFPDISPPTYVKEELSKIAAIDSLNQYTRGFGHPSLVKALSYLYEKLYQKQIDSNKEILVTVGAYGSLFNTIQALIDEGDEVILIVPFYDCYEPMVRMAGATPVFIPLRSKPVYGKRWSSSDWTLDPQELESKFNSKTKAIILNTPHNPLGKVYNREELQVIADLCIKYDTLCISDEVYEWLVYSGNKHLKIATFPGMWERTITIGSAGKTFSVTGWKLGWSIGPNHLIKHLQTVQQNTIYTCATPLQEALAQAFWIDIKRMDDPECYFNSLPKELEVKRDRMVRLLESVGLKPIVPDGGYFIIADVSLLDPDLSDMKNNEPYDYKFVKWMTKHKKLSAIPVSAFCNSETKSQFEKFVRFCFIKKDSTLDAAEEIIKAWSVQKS
UniProt P07195, whole entry, looked up: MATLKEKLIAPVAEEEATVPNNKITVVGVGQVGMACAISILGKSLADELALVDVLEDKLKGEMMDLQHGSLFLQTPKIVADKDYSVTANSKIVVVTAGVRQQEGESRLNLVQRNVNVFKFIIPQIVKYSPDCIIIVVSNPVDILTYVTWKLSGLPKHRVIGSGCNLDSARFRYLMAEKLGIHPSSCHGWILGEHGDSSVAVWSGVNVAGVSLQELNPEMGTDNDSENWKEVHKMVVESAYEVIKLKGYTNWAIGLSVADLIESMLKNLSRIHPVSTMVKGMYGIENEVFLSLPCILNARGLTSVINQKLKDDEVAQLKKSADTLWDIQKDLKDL
UniProt O95202: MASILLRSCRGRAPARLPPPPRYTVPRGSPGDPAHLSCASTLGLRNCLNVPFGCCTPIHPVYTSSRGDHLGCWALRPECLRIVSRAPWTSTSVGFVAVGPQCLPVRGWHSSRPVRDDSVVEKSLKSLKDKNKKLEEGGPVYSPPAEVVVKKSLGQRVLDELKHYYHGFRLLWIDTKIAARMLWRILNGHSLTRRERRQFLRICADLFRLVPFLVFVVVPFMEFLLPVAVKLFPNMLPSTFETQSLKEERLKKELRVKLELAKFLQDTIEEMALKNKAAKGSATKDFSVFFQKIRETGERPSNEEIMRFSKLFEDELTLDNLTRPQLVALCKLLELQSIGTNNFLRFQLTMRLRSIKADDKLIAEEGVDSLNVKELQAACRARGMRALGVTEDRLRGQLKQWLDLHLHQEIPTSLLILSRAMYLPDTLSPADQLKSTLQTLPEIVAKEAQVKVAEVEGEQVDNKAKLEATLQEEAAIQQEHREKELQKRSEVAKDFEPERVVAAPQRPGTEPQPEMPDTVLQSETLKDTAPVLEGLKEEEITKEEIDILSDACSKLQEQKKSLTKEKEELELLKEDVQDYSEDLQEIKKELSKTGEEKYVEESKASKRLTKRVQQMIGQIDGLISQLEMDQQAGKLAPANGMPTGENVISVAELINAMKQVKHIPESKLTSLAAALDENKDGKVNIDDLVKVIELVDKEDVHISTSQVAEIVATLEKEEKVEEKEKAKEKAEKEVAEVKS
UniProt Q6IAA8, whole entry, looked up: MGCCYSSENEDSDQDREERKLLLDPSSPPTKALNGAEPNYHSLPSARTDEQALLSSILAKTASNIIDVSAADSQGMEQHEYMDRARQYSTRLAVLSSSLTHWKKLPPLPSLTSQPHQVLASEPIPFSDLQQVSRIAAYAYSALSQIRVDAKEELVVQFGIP
UniProt Q96BZ8: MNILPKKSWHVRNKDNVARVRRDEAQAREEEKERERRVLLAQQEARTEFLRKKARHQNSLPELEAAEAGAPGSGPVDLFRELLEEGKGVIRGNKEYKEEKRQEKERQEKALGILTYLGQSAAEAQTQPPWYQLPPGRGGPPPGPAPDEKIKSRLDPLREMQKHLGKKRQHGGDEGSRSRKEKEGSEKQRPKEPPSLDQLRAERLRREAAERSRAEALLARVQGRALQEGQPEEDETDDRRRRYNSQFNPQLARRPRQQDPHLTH
UniProt Q96EK9: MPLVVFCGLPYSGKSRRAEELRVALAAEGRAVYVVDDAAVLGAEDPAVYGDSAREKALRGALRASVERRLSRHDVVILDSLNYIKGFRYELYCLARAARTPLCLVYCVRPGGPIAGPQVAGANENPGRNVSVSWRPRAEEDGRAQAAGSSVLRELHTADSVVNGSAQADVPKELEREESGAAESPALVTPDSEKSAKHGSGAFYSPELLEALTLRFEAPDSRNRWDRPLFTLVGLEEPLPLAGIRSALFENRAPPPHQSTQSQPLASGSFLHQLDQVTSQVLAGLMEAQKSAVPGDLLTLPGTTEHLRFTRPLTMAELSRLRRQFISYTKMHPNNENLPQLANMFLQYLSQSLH
UniProt Q8N9N7: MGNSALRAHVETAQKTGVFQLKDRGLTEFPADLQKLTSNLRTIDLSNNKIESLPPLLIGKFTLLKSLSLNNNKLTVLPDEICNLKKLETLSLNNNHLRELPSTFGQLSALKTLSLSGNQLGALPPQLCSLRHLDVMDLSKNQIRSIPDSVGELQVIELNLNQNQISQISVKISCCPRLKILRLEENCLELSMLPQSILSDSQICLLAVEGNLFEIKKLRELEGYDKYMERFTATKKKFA

[2] = compound: CC1=C(C=C(C=C1)NC(=O)C2=CC(=CC=C2)N(C)C)NC(=O)C3=CC=C(C=C3)O
In short: as §1

[3] = compound: CC1=CC=C(C=C1)SC2=C3C=C(SC3=CN=C2)C(=O)N
In short: as §1

[4] = compound: CC1=NC(=CC=C1)C2=C(N=C(N2)C(C)(C)C)C3=CC4=NC=CN=C4C=C3
In short: as §1

Nexturastat A = compound: CCCCN(Cc1ccc(C(=O)NO)cc1)C(=O)Nc1ccccc1 [Nexturastat A]
In short: as §1

vemurafenib = compound: CCCS(=O)(=O)Nc1ccc(F)c(C(=O)c2c[nH]c3ncc(-c4ccc(Cl)cc4)cc23)c1F [vemurafenib]
In short: as §1

[5] = compound: CCCS(=O)(=O)Nc1ccc(F)c(C(=O)c2c[nH]c3ncc(Cl)cc23)c1F
In short: as §1

[6] = compound: CCCc1cc(C)[nH]c(=O)c1CNC(=O)c1cc(-c2ccnc(N3CCN(C)CC3)c2)cc2c1cnn2C(C)C
In short: as §1

givinostat = compound: CCN(CC)Cc1ccc2cc(COC(=O)Nc3ccc(C(=O)NO)cc3)ccc2c1 [givinostat]
In short: as §1

barasertib = compound: CCN(CCCOc1ccc2c(Nc3cc(CC(=O)Nc4cccc(F)c4)[nH]n3)ncnc2c1)CCOP(=O)(O)O [barasertib]
In short: as §1

[7] = compound: CC[C@@H]1C(=O)N(C)c2cnc(Nc3ccc(C(=O)NC4CCN(C)CC4)cc3OC)nc2N1C1CCCC1
In short: as §1

volasertib = compound: CC[C@@H]1C(=O)N(C)c2cnc(Nc3ccc(C(=O)N[C@H]4CC[C@H](N5CCN(CC6CC6)CC5)CC4)cc3OC)nc2N1C(C)C [volasertib]
In short: as §1

[8] = compound: CC[C@H](C)N1C=C(C2=C(C=C(C=C21)C3=CN=C(C=C3)N4CCNCC4)C(=O)NCC5=C(C=C(NC5=O)C)C)C
In short: as §1

epoxomicin = compound: CC[C@H](C)[C@@H](C(=O)N[C@@H]([C@@H](C)O)C(=O)N[C@@H](CC(C)C)C(=O)[C@]1(CO1)C)NC(=O)[C@H]([C@@H](C)CC)N(C)C(=O)C [epoxomicin]
In short: as §1

[9] = compound: CCn1c(C(=O)N(C2CC2)C2CC2)cc2c3c(ncn3C)c(Nc3cc(C)n(C)n3)nc21
In short: as §1

[10] = compound: CCn1cc(-c2ccnc3[nH]c(-c4cccc(CN(C)C)c4)cc23)c(-c2ccc(NC(=O)N(C)C)cc2)n1
In short: as §1

[11] = compound: CN(C)CC(=O)Nc1ccc2[nH]c(=O)c3ccccc3c2c1
In short: as §1

rosiglitazone = compound: CN(CCOC1=CC=C(C=C1)C[C@H]2C(=O)NC(=O)S2)C3=CC=CC=N3 (racemic) [rosiglitazone]
In short: as §1

[12] = compound: CN1C2=C(C3=C1C(=O)N(N=C3)CC4=CC(=CC=C4)N)SC(=C2)S(=O)C
In short: as §1

[13] = compound: CN1CCC(CNc2ccc3ncc(-c4cccc(OC(F)(F)F)c4)n3n2)CC1
In short: as §1

Measured: log2 fold change

LRIF1 (UniProt Q5T3J3)
inactive: [1] -0.089 | [2] 0.04 | [3] -0.083 | [4] -0.01 | Nexturastat A 0.144 | vemurafenib 0.016 | [5] -0.028 | [6] -0.013 | givinostat -0.042 | barasertib -0.129 | [7] 0.06 | volasertib 0.044 | [8] -0.032 | epoxomicin -0.055 | [9] -0.02 | [10] 0.055 | [11] 0.027 | rosiglitazone -0.096 | [12] -0.123 | [13] -0.062

LMO2 isoform 3 (UniProt P25791)
inactive: [1] 0.018 | [2] 0.004 | [3] 0.007 | [4] -0.021 | Nexturastat A -0.135 | vemurafenib 0.007 | [5] -0.004 | [6] -0.151 | givinostat -0.138 | barasertib -0.031 | [7] -0.007 | volasertib -0.016 | [8] 0.014 | epoxomicin 0.028 | [9] 0.014 | [10] 0.017 | [11] 0.02 | rosiglitazone 0.081 | [12] 0 | [13] -0.013

LMAN2 (UniProt Q12907)
inactive: [1] -0.021 | [2] 0.03 | [3] 0.084 | [4] 0.054 | Nexturastat A -0.026 | vemurafenib -0.006 | [5] -0.025 | [6] -0.072 | givinostat -0.013 | barasertib 0 | [7] -0.034 | volasertib -0.021 | [8] 0.011 | epoxomicin 0.016 | [9] 0.007 | [10] -0.025 | [11] -0.01 | rosiglitazone 0.01 | [12] -0.006 | [13] -0.021

L3HYPDH (UniProt Q96EM0)
inactive: [1] 0.015 | [2] -0.042 | [3] 0.001 | [4] -0.014 | Nexturastat A -0.027 | vemurafenib -0.042 | [5] 0 | [6] 0.013 | givinostat 0.061 | barasertib -0.01 | [7] -0.032 | volasertib 0.078 | [8] 0.02 | epoxomicin 0.042 | [9] -0.002 | [10] -0.118 | [11] 0.016 | rosiglitazone 0.032 | [12] -0.113 | [13] -0.049

LMAN2L isoform 2 (UniProt Q9H0V9)
inactive: [1] -0.047 | [2] 0.008 | [3] 0.094 | [4] -0.004 | Nexturastat A 0.035 | vemurafenib -0.01 | [5] -0.044 | [6] -0.057 | givinostat 0.042 | barasertib 0.025 | [7] -0.005 | volasertib -0.037 | [8] 0.016 | epoxomicin 0.01 | [9] 0.011 | [10] -0.154 | [11] 0.008 | rosiglitazone 0.005 | [12] 0.042 | [13] -0.101

LMAN1 (UniProt P49257)
inactive: [1] -0.024 | [2] -0.017 | [3] -0.004 | [4] -0.02 | Nexturastat A 0 | vemurafenib -0.021 | [5] 0.009 | [6] -0.044 | givinostat 0.003 | barasertib 0.009 | [7] -0.055 | volasertib -0.045 | [8] 0.02 | epoxomicin 0.008 | [9] 0.012 | [10] -0.001 | [11] -0.043 | rosiglitazone -0.011 | [12] 0.01 | [13] -0.127

LAGE3 (UniProt Q14657)
inactive: [1] -0.052 | [2] -0.03 | [3] 0.016 | [4] -0.046 | Nexturastat A -0.021 | vemurafenib 0.033 | [5] -0.026 | [6] -0.017 | givinostat -0.023 | barasertib 0.023 | [7] 0.055 | volasertib 0.013 | [8] -0.052 | epoxomicin 0.096 | [9] 0.074 | [10] -0.015 | [11] 0.092 | rosiglitazone 0.026 | [12] -0.085 | [13] -0.007

Random excerpt: 2 records from the list, in no set order.
L3HYPDH (UniProt Q96EM0)
inactive: [1] 0.015 | [2] -0.042 | [3] 0.001 | [4] -0.014 | Nexturastat A -0.027 | vemurafenib -0.042 | [5] 0 | [6] 0.013 | givinostat 0.061 | barasertib -0.01 | [7] -0.032 | volasertib 0.078 | [8] 0.02 | epoxomicin 0.042 | [9] -0.002 | [10] -0.118 | [11] 0.016 | rosiglitazone 0.032 | [12] -0.113 | [13] -0.049

LMAN2L isoform 2 (UniProt Q9H0V9)
inactive: [1] -0.047 | [2] 0.008 | [3] 0.094 | [4] -0.004 | Nexturastat A 0.035 | vemurafenib -0.01 | [5] -0.044 | [6] -0.057 | givinostat 0.042 | barasertib 0.025 | [7] -0.005 | volasertib -0.037 | [8] 0.016 | epoxomicin 0.01 | [9] 0.011 | [10] -0.154 | [11] 0.008 | rosiglitazone 0.005 | [12] 0.042 | [13] -0.101

Next part:

LASP1 (UniProt Q14847)
inactive: [1] 0.014 | [2] 0.006 | [3] 0.018 | [4] 0.036 | Nexturastat A -0.026 | vemurafenib -0.001 | [5] -0.021 | [6] 0.065 | givinostat -0.03 | barasertib -0.002 | [7] -0.003 | volasertib 0.072 | [8] -0.032 | epoxomicin 0.007 | [9] 0.037 | [10] 0.025 | [11] -0.014 | rosiglitazone 0.004 | [12] -0.025 | [13] 0.001

KYAT3 (UniProt Q6YP21)
inactive: [1] -0.01 | [2] 0.015 | [3] -0.002 | [4] 0.006 | Nexturastat A -0.093 | vemurafenib 0 | [5] 0.032 | [6] -0.018 | givinostat -0.021 | barasertib 0.005 | [7] 0.054 | volasertib 0.052 | [8] -0.059 | epoxomicin -0.03 | [9] 0.014 | [10] 0.001 | [11] -0.013 | rosiglitazone -0.006 | [12] -0.025 | [13] -0.015

LDHB (UniProt P07195)
inactive: [1] -0.011 | [2] 0.009 | [3] 0.016 | [4] -0.002 | Nexturastat A -0.061 | vemurafenib 0.001 | [5] -0.015 | [6] -0.127 | givinostat -0.01 | barasertib -0.026 | [7] 0.003 | volasertib 0.024 | [8] -0.035 | epoxomicin -0.007 | [9] 0.033 | [10] -0.019 | [11] -0.02 | rosiglitazone 0.007 | [12] -0.061 | [13] 0.035

LETM1 (UniProt O95202)
inactive: [1] 0.036 | [2] -0.01 | [3] 0.036 | [4] 0.045 | Nexturastat A -0.091 | vemurafenib 0.012 | [5] 0.025 | [6] 0.008 | givinostat -0.018 | barasertib 0.009 | [7] -0.093 | volasertib -0.085 | [8] 0.016 | epoxomicin 0.044 | [9] 0.035 | [10] -0.041 | [11] 0.021 | rosiglitazone 0.024 | [12] -0.065 | [13] -0.205

LAMTOR1 (UniProt Q6IAA8)
inactive: [1] 0.093 | [2] 0.019 | [3] 0.058 | [4] 0.069 | Nexturastat A 0.173 | vemurafenib 0 | [5] 0.037 | [6] 0.056 | givinostat -0.013 | barasertib -0.019 | [7] -0.2 | volasertib -0.111 | [8] 0.022 | epoxomicin 0.115 | [9] 0.057 | [10] -0.04 | [11] 0.06 | rosiglitazone 0.001 | [12] 0.023 | [13] -0.137

LENG1 (UniProt Q96BZ8)
inactive: [1] -0.053 | [2] -0.016 | [3] -0.012 | [4] -0.107 | Nexturastat A -0.027 | vemurafenib -0.133 | [5] -0.029 | [6] -0.058 | givinostat 0.012 | barasertib -0.01 | [7] 0.067 | volasertib 0.115 | [8] -0.018 | epoxomicin 0.006 | [9] -0.014 | [10] 0.041 | [11] -0.048 | rosiglitazone 0.023 | [12] -0.02 | [13] -0.056

KTI12 (UniProt Q96EK9)
inactive: [1] 0.033 | [2] -0.019 | [3] 0.012 | [4] 0.063 | Nexturastat A 0.098 | vemurafenib 0.128 | [5] 0.025 | [6] 0.019 | givinostat 0.145 | barasertib 0.033 | [7] -0.075 | volasertib 0.044 | [8] -0.015 | epoxomicin -0.029 | [9] -0.083 | [10] -0.082 | [11] 0.115 | rosiglitazone 0.064 | [12] 0.093 | [13] -0.008

LRRC57 (UniProt Q8N9N7)
inactive: [1] 0.015 | [2] 0.041 | [3] 0.016 | [4] 0.028 | Nexturastat A -0.013 | vemurafenib 0.03 | [5] -0.001 | [6] -0.039 | givinostat -0.002 | barasertib 0.005 | [7] 0.002 | volasertib 0.001 | [8] 0.013 | epoxomicin -0.008 | [9] -0.015 | [10] -0.064 | [11] 0.006 | rosiglitazone 0.045 | [12] -0.088 | [13] -0.031

LAMTOR5 (UniProt O43504)
inactive: [1] 0.044 | [2] -0.026 | [3] -0.006 | [4] -0.065 | Nexturastat A 0.156 | vemurafenib 0.13 | [5] 0.039 | [6] 0.134 | givinostat 0 | barasertib 0.049 | [7] -0.012 | volasertib 0.03 | [8] -0.009 | epoxomicin 0.235 | [9] 0.047 | [10] 0.082 | [11] 0.294 | rosiglitazone -0.106 | [12] -0.131 | [13] 0.081
